# This list was built around the results that the source calls inconclusive (neither active nor inactive); the mix of calls is not that of the screen. For some of these results: Potencies beside an inconclusive call are fits to weak or partial responses and may not hold up. Activity calls are given as the source filed them. Rule for the calls: active = hit-call score of the fitted dose curve at least 0.9, where 1 is the maximum; inconclusive = response in the unintended direction; inactive = score below 0.9.
# Sequences of proteins named here, by UniProt entry; tags and fusion partners are left off. A change or cut given only in a name is not applied to a line headed by its entry.
# UniProt P37231: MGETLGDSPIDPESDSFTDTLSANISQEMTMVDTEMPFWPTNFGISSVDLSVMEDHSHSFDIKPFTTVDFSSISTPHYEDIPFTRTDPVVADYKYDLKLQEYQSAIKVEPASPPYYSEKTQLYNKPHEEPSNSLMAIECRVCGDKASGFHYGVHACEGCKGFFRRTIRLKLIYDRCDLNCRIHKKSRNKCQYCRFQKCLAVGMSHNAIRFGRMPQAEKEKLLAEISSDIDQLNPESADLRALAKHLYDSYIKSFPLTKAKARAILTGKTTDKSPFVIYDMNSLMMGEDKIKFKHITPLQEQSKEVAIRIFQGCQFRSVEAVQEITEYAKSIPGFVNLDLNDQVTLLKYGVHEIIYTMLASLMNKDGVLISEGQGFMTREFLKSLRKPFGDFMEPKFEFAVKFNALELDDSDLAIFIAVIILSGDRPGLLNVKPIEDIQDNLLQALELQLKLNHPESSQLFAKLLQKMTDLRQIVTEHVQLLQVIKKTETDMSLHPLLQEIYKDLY
# UniProt P16257, whole entry, looked up: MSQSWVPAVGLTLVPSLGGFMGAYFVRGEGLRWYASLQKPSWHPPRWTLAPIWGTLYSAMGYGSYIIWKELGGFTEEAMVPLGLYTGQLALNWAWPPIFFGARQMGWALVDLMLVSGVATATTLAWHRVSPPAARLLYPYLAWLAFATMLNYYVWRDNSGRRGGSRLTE
# UniProt O75469: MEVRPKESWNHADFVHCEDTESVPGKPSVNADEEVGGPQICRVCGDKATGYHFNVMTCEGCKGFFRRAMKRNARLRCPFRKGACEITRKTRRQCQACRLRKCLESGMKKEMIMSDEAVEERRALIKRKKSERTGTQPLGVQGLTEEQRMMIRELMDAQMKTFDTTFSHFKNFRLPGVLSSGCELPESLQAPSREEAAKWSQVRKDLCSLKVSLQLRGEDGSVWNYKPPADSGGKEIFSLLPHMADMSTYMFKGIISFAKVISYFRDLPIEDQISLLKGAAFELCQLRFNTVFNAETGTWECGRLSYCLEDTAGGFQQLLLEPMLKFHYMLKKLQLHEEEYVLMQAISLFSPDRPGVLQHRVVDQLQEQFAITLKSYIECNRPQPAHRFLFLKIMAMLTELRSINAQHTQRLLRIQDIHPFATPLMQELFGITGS
# UniProt P60484: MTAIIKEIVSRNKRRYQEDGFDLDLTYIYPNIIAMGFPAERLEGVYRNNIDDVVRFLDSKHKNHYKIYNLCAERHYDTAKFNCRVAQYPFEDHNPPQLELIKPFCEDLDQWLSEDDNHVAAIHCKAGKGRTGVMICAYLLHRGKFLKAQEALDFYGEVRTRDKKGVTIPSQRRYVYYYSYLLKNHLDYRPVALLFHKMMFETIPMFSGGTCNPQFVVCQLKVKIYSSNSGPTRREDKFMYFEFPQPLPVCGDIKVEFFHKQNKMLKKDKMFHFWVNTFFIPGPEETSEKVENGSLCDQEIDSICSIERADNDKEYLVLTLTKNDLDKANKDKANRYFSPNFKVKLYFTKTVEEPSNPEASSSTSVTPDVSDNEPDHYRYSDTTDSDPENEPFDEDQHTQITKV
# UniProt P49884, whole entry, looked up: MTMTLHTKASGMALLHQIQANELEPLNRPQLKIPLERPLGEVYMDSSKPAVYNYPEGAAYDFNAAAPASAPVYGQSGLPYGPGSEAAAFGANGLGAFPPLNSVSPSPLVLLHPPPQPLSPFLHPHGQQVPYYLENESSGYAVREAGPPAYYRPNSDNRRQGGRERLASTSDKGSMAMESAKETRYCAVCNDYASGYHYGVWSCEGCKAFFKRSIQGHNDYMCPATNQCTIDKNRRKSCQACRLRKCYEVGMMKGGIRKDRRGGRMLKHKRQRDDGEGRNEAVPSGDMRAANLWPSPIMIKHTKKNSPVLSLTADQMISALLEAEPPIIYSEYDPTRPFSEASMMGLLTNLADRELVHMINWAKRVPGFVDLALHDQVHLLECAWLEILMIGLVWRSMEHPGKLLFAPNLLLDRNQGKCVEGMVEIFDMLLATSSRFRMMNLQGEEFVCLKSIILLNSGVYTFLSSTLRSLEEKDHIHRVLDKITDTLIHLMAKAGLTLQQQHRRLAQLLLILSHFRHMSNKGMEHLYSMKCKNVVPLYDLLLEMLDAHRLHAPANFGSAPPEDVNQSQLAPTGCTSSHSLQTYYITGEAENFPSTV
# UniProt P10275: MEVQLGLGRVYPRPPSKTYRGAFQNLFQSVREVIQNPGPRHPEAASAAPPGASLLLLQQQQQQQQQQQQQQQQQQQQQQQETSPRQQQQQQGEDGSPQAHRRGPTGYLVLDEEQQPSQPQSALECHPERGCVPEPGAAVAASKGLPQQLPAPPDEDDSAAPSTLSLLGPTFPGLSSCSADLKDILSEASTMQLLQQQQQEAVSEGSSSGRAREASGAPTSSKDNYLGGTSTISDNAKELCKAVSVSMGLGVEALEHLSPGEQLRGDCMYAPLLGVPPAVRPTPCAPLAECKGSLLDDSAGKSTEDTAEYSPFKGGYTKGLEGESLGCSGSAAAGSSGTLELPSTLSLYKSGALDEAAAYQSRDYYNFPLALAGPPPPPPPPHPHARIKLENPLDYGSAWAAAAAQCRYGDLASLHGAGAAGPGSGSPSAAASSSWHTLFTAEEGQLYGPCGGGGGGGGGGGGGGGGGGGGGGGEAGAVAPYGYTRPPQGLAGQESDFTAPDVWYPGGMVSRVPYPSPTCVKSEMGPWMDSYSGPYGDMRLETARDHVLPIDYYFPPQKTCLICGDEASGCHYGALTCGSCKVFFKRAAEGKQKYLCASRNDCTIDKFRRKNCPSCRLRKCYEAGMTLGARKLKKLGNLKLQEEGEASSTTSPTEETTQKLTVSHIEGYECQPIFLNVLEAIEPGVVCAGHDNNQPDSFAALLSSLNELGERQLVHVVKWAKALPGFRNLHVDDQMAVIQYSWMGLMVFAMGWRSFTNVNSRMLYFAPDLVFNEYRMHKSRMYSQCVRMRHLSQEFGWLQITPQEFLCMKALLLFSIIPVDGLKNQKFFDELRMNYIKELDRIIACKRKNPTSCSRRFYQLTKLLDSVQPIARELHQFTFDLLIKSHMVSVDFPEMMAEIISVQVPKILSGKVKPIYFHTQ
# How the values were obtained:
# [1] = target: Peroxisome proliferator-activated receptor gamma (Homo sapiens) (UniProt P37231); assay: NVS_NR_hPPARg: NovaScreen (NVS) Nuclear Receptor Binding Assay for human Peroxisome Proliferator-activated Receptor gamma (PPARg) (AID 2283370)
# Summary of the method: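 Cell-free fluorescence polarization binding to human PPARg protein, read 2 h after dosing. Primary screen in duplicate at 25 uM, actives followed in concentration series; loss of signal relative to DMSO scored.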
# [2] = ATG_XTT_Cytotoxicity: Cytotoxicity Assessment in the Attagene TRANS-FACTORIAL HepG2 Assay (AID 2283584);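 note: XTT signal for cell number as viability in transfected HepG2 cells; cells exposed to compound for 24 h before reading; active means loss of viability signal versus DMSO baseline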
# Summary of the method: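 HepG2 cells transiently transfected with GAL4-UAS multiple reporter units, dosed 24 h; cytotoxicity read by XTT as loss of signal versus DMSO baseline.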
# [3] = Tanguay_ZF_120hpf_TR_legacy: (Legacy) Oregon State University Tanguay Lab 120 Hour Post-fertilization zebrafish Assay for Touch Response (AID 2283667)
# Summary of the method: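 Binary touch-response call at 120 hpf, analysed as gain of signal versus DMSO baseline. Wild-type 5D larvae, static exposure at 28C, 0.64% DMSO final; 5uM trimethyltin chloride as positive control.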
# [4] = CCTE_Shafer_MEA_acute_AB: CCTE's Alamar Blue Assay for Cytotoxicity in the Neural Acute Assay, Shafer Lab (AID 2284069);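 note: active compounds lower the viability signal compared with DMSO wells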
# Summary of the method: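 Cytotoxicity endpoint for acute MEA exposures of primary rat cortical neurons on day 13 or 15. Resazurin reduction is read fluorescently at 544/590 nm, with DMSO as the negative-control baseline.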
# [5] = target: rat Peripheral-type Benzodiazepine Receptor (PBR), Tspo (gene 24230) (UniProt P16257); assay: NVS_MP_rPBR: NovaScreen (NVS) Membrane Protein Assay for rat Peripheral-type Benzodiazepine Receptor (PBR) (AID 2283335)
# Summary of the method: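 Competitive displacement of specific radioligand from rat kidney membrane PBR, read by filtration and scintillation after 1 h. Compounds first tested at 25 uM in duplicate, then in concentration series; signal loss relative to DMSO.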
# [6] = CCTE_Mundy_HCI_Cortical_Synap_Neur_Matur_NeuronCount: CCTE's Synaptogenesis and Neurite Maturation Assay in rat cortical cells for Neuron Count, Mundy Lab (AID 2284242);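 for AC50: neuron number from Hoechst nuclei and MAP2 staining by high-content imaging; hits reduce neuron count versus DMSO baseline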
# Summary of the method: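 Cortical cells from rat are plated, treated with AraC at DIV 5, and exposed to test chemicals with a media change at DIV 7. At DIV 12 they are fixed and immunostained (MAP2, synaptophysin), and imaged neuron counts are compared against DMSO controls.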
# [7] = target: Nuclear receptor subfamily 1 group I member 2 (Homo sapiens) (UniProt O75469); assay: NVS_NR_hPXR: NovaScreen (NVS) Nuclear Receptor Binding Assay for human Pregnane X Receptor (PXR) (AID 2283365);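 note: a drop in FRET signal versus DMSO baseline means the compound binds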
# Summary of the method: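 Cell-free TR-FRET binding assay with extracted human PXR protein, read 2 h after dosing. Primary screen run in duplicate at 25 uM, actives followed in concentration series; loss of signal fitted against DMSO baseline.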
# [8] = read-out: xenobiotic metabolism (CYP1A2), CYP1A2 (gene 1544); assay: CLD_CYP1A2_6hr: CellzDirect (CLD) Gene Expression Assay for xenobiotic metabolism (CYP1A2) at 6 hours (AID 2283663);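 note: potency is for induction meaning a rise in mRNA above DMSO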
# Summary of the method: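 mRNA levels quantified by quantitative nuclease protection assay with chemiluminescence, 6 h after dosing human primary hepatocyte cultures (two donors) across several concentrations, vehicle 0.2% DMSO. Induction fitted upward versus DMSO; phase-contrast cytotoxicity annotated.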
# [9] = read-out: xenobiotic metabolism (CYP1A1), CYP1A1 (gene 1543); assay: CLD_CYP1A1_24hr: CellzDirect (CLD) Gene Expression Assay for xenobiotic metabolism (CYP1A1) at 24 hours (AID 2283673);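 note: CYP1A1 mRNA level by quantitative nuclease protection with chemiluminescence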
# Summary of the method: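 Transcript levels were read at 24 h by qNPA chemiluminescence in human liver primary cells. Cells got daily fresh dosing at multiple concentrations (vehicle 0.2% DMSO). Induction fitted upward against DMSO; phase-contrast cytotoxicity annotated.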
# [10] = read-out: xenobiotic metabolism (CYP1A2), CYP1A2 (gene 1544); assay: CLD_CYP1A2_24hr: CellzDirect (CLD) Gene Expression Assay for xenobiotic metabolism (CYP1A2) at 24 hours (AID 2283683)
# Summary of the method: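 CYP1A2 mRNA induction measured by quantitative nuclease protection (chemiluminescent) in human primary hepatocytes 24 h after multi-concentration chemical dosing with daily fresh solutions. DMSO (0.2%) baseline; positive-direction fitting; morphology-based cytotoxicity noted.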
# [11] = read-out: xenobiotic metabolism (CYP1A2), CYP1A2 (gene 1544); assay: CLD_CYP1A2_48hr: CellzDirect (CLD) Gene Expression Assay for xenobiotic metabolism (CYP1A2) at 48 hours (AID 2283703)
# Summary of the method: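 Cytotoxicity was flagged yes/no from morphology, while CYP1A2 transcript induction was detected by qNPA chemiluminescence after a 48-hour exposure. Human primary hepatocyte cultures from separate donors received fresh dosing solutions daily over two days, with 0.2% DMSO as vehicle and baseline.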
# [12] = Tanguay_ZF_120hpf_CFIN_legacy: (Legacy) Oregon State University Tanguay Lab 120 Hour Post-fertilization zebrafish Assay for Caudal Fin Malformation (AID 2283649)
# Summary of the method: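 Dechorionated Tropical 5D wild-type embryos, one per well from 6 hpf, static exposure to 120 hpf at 28C in 0.64% DMSO. Caudal fin malformation scored by brightfield as present/absent; not scored in dead embryos.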
# [13] = target: human Phosphatase and Tensin Homolog (PTEN), PTEN (gene 5728) (UniProt P60484); assay: NVS_ENZ_hPTEN: NovaScreen (NVS) Enzymatic Assay for human Phosphatase and Tensin Homolog (PTEN) (AID 2283203)
# Summary of the method: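 Loss of fluorescent product signal after mobility-shift separation reports PTEN activity, recombinant human enzyme, 1 h after compound addition. Single 25 uM duplicate screen, then concentration-response on actives; DMSO baseline.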
# [14] = target: bovine Estrogen Receptor (ER), ESR1 (gene 407238) (UniProt P49884); assay: NVS_NR_bER: NovaScreen (NVS) Nuclear Receptor Binding Assay for bovine Estrogen Receptor (ER) (AID 2283345);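 note: actives lower the bound radioligand count which means they displace the ER ligand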
# Summary of the method: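 Bovine uterine membranes; tritiated or iodinated radioligand; competitive displacement; 18 h; scintillation read; DMSO negative control; 25 uM duplicates, then concentration series for actives.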
# [15] = target: Ratio of Nucleoli Translocation and Cytoplasm, AR (gene 367) (UniProt P10275); assay: UPITT_HCI_U2OS_AR_TIF2_Nucleoli_Cytoplasm_Ratio_Antagonist: University of Pittsburgh U2OS Androgen Receptor-Transcriptional Intermediary Factor 2 (AR-TIF2) Antagonism High Content Imaging Assay for Ratio of Nucleoli Translocation and Cytoplasm (AID 2283999);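 note: antagonists lower the DHT-driven ratio of nucleolar to cytoplasmic red signal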
# Summary of the method: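 Compounds were added to U2OS cells carrying red-fluorescent AR and green-fluorescent TIF2, first at 20 uM, with hits confirmed in triplicate and titrated from 0.195 to 50 uM. Nucleolar versus cytoplasmic AR-RFP fluorescence was then quantified by imaging, with analysis relative to DHT.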
# [16] = Tanguay_ZF_120hpf_EYE_legacy: (Legacy) Oregon State University Tanguay Lab 120 Hour Post-fertilization zebrafish Assay for Eye Malformation (AID 2283636);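 note: binary presence or absence of eye malformation scored by brightfield in 120 hpf larvae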
# Summary of the method: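 5D wild-type embryos, pronase-dechorionated at 4 hpf; static exposure 6–120 hpf, 28C, dark; DMSO 0.64% final; 5uM trimethyltin chloride positive control. Binary eye-defect scoring at 120 hpf; dead embryos not scored.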
# [17] = CCTE_Shafer_MEA_dev_AB: CCTE's Alamar Blue Assay for Cytotoxicity in the Neural Network Formation Assay, Shafer Lab (AID 2284083);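 note: resazurin reduction fluorescence as viability of cultured neurons; twelve days of exposure from plating with re-dosing on DIV 5 and 9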
# Summary of the method: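 Cytotoxicity companion to the developmental MEA: primary rat cortical neurons, 12-day exposure starting day 0, compound refreshed DIV 5 and 9; resazurin fluorescence, fitted against DMSO vehicle.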
compound,measurement,setting,value
c1ccc(N=Nc2ccccc2)cc1,outcome,[1],inactive
same,AC50,[2],inconclusive: 0.102 µM
same,AC50,[3],inconclusive: 1.43 µM
same,outcome,[4],inactive
CC1=NNC(=O)N(/N=C/c2cccnc2)C1,AC50,[5],inconclusive: 25 µM
same,AC50,[6],inconclusive: 3.7 µM
N#Cc1c(Cl)cccc1Cl,outcome,[5],inactive
same,outcome,[7],inactive
same,AC50,[8],inconclusive: 20 µM
same,AC50,[9],inconclusive: 0.00336 µM
same,AC50,[10],inconclusive: 0.182 µM
same,AC50,[11],inconclusive: 2.43 µM
Cc1cc(N=Nc2ccccc2C)ccc1N,AC50,[12],inconclusive: 202 µM
CCCCOP(=O)(CCCC)OCCCC,AC50,[13],inconclusive: 0.147 µM
same,AC50,[2],inconclusive: 100 µM
O=C(NC(=O)c1c(F)cccc1F)Nc1ccc(OC(F)(F)C(F)OC(F)(F)F)c(Cl)c1 (stereo not drawn),AC50,[14],inconclusive: 1.36 µM
same,AC50,[1],inconclusive: 25 µM
same,outcome,[3],inactive
same,AC50,[10],inconclusive: 20 µM
C[C@]12CC[C@@H](O)C[C@@H]1CC[C@@H]1[C@@H]2CC[C@]2(C)C(=O)CC[C@@H]12,outcome,[13],inactive
N#CSCSC#N,AC50,[3],inconclusive: 3.4 µM
same,AC50,[10],inconclusive: 0.0004 µM
same,AC50,[15],active: 12.7 µM
COC(=O)Nc1nc2ccccc2[nH]1,AC50,[16],active: 46.4 µM
same,AC50,[15],inconclusive: 0.386 µM
same,AC50,[17],active: 7.64 µM
same,outcome,[6],inactive
CN(N=O)c1ccccc1,AC50,[2],inconclusive: 100 µM
Cc1cccc([N+](=O)[O-])c1,outcome,[13],inactive
same,outcome,[3],inactive
COCC(=O)N(c1c(C)cccc1C)C(C)C(=O)OC (stereo not drawn),AC50,[5],active: 25 µM
same,AC50,[14],inconclusive: 25 µM
same,AC50,[16],inconclusive: 142 µM
same,AC50,[10],inconclusive: 0.00309 µM
same,AC50,[4],inconclusive: 20 µM
Cc1ccccc1CO[C@@H]1C[C@@]2(C(C)C)CC[C@]1(C)O2,outcome,[15],inactive
O=[N+]([O-])c1c(Cl)c(Cl)cc(Cl)c1Cl,outcome,[14],inactive
O=C(Cl)c1ccc(Cl)cc1,AC50,[13],inconclusive: 0.122 µM
C[Si](Cn1cncn1)(c1ccc(F)cc1)c1ccc(F)cc1,outcome,[5],inactive
same,AC50,[16],active: 46.9 µM
same,AC50,[12],active: 36 µM
same,AC50,[11],active: 1.89 µM
same,outcome,[17],inactive

# Given with bars between the fields: entries from further up
compound | measurement | setting | value
N#Cc1c(Cl)cccc1Cl | outcome | [7] | inactive
COC(=O)Nc1nc2ccccc2[nH]1 | AC50 | [17] | active: 7.64 µM
CN(N=O)c1ccccc1 | AC50 | [2] | inconclusive: 100 µM

# Source: PubChem BioAssay (EPA / NIEHS)
